For this experiment, the target named is T1, Mouse IL-12 P35 subunit (mouse) (UniProt P43431).
T1 sequence: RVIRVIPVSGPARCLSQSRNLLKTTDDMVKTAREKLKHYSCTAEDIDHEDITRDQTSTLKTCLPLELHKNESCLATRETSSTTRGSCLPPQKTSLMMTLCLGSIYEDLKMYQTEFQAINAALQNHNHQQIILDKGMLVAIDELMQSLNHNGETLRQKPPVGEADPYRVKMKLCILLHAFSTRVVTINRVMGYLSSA
The experiment can be described thus: Western blot of secreted protein from mIL-12 vector-transduced A375 clones, reducing versus non-reducing. (In general: Immunoblotting shows a protein as a band on a membrane.)

Our source for the binding values is patent US20230265457A1.

Results are given in words; binding and its absence hold for the method and conditions named. Some results given as binding are weak or reduced against the parent protein; the word gives no strength.

B1: Mouse IL-12 P40 subunit (ligand)
chain: MWELEKDVYVVEVDWTPDAPGETVNLTCDTPEEDDITWTSDQRHGVIGSGKTLTITVKEFLDAGQYTCHKGGETLSHSHLLLHKKENGIWSTEILKNFKNKTFLKCEAPNYSGRFTCSWLVQRNMDLKFNIKSSSSSPDSRAVTCGMASLSAEKVTLDQRDYEKYSVSCQEDVTCPTAEETLPIELALEARQQNKYENYSTSFFIRDIIKPDPPKNLQMKPLKNSQVEVSWEYPDSWSTPHSYFSLKFFVRIQRKKEKMKETEEGCNQKGAFLVEKTSTEVQCKGGNVCVQAQDRYYNSSCSKWACVPCRVRSRR
As to B1, the binding entry is on record as “binds”.
